Laboratory results as given in US10106542B2, “Substituted 6,7-dihydropyrazolo[1,5-a]pyrazines as negative allosteric modulators of mGluR2 receptors” (Janssen Pharmaceutica NV, priority 2013, dated 2018).

Test system: Wiga rats
Experiment: Reserpine interaction test in rats
Assay type: in vivo, rat
Method: 4) Reserpine Interaction Test in Rats
It was investigated to what extent the mydriatic action of test compounds was sufficient to counteract the miosis induced by the monoamines-depleting agent reserpine (10 mg/kg; SC) in Wiga rats.
The effects are illustrated in FIG. 3. […] The reference mGlu2 NAMs RO-4995819 (40 mg/kg, p.o.), RO-4491533 (40 mg/kg, p.o.; 10 mg/kg, s.c.) and [CAS 579473-69-1]

SMILES: Cc1cc(-c2cnn3c2C(=O)N(c2ccc(C(F)(F)F)cc2)C[C@@H]3C)ccn1 [compound 1, (7S)-7-Methyl-3-(2-methylpyridin-4-yl)-5-[4-(trifluoromethyl)phenyl]-6,7-dihydropyrazolo[1,5-a]pyrazin-4(5H)-one]
- reserpine-induced blockade of the tail-pinch response: did not affect
- scratching or hyperemia after reserpine: did not induce
- tail-pinch response before reserpine: did not affect
